From US20200057058A1
Results are given in words; binding and its absence hold for the method and conditions named. Some binding calls cover weakened binding; strength is not graded here.

What was measured:
streptavidin [1] = biological target: streptavidin (UniProt P22629); assay: fluorescent binding assay, labeled SA in PBS on the monolayer, 4 h exposure
streptavidin [2] = biological target: streptavidin (UniProt P22629); assay: sandwich assay: SA in 50% urine captured on the monolayer, detected with biotin-HRP and TMB, absorbance at 450 nm
streptavidin [3] = biological target: streptavidin (UniProt P22629); assay: fluorescent binding assay, labeled SA in 50% urine on the monolayer, 4 h exposure
streptavidin [4] = biological target: streptavidin (UniProt P22629); assay: fluorescent diffusion assay: monolayer exposed to 10 µM labeled SA for 0.5-8 h, rinsed
streptavidin [5] = biological target: streptavidin (UniProt P22629); assay: sandwich assay: SA in PBS captured on the monolayer, detected with biotin-HRP and TMB, absorbance at 450 nm
streptavidin [6] = biological target: streptavidin (UniProt P22629); assay: fluorescent binding assay: Alexa Fluor 647-labeled streptavidin applied to the monolayer, rinsed, fluorescence microscopy
streptavidin [7] = biological target: streptavidin (UniProt P22629); assay: fluorescent binding assay, labeled SA in 50% blood serum on the monolayer, 4 h exposure
streptavidin [8] = biological target: streptavidin (UniProt P22629); assay: sandwich assay: SA in 50% blood serum captured on the monolayer, detected with biotin-HRP and TMB, absorbance at 450 nm
streptavidin [9] = biological target: streptavidin (UniProt P22629); assay: fluorescent time-course assay, labeled SA on monolayer

Measured: binding

B1: rcSso7d.SA monolayer (designed binder)
chain: MGSIHHHHHHSSGLVPRGSHMCATVKFTYQGEEKQVDISKIKIVARDGQYIDFKYDEGGGAYGYGWVSEKDAPKELLQMLEKQ
modifications: EDC/NHS-activated protein coupled to an amine-functionalized silicon wafer
binds: streptavidin [1] | streptavidin [2] | streptavidin [3] | streptavidin [4] | streptavidin [5] | streptavidin [6] | streptavidin [7] | streptavidin [8] | streptavidin [9]
